Experimental data as given in US10968181B2, “NRF2 activator” (BIOGEN MA INC., priority 2016, dated 2021).
Some of these results come from one statement about several compounds together.

test system: NRF2; assay: PathHunter Nuclear Translocation assay (DiscoverX), agonist format; assay type: cell-based; details: 6 hours at room temperature, duplicate, 10 concentrations, 30 μM top concentration, normalized to control ligand CDDO methyl ester and vehicle

CC(=O)N1CC[C@@H]2C(C)(C)C(=O)C(C#N)=C[C@@]2(C)C1 (single isomer, unassigned) [Compound 12-Ent1] and CC(=O)N1CCC[C@@H]2C(C)(C)C(=O)C(C#N)=C[C@@]2(C)C1 (single isomer, unassigned) [Compound 53-Ent1] cannot be ordered by EC50: less than 1000 nM for the first, less than 1000 nM for the second.

CN1CCC2C(C)(C=C(C#N)C(=O)C2(C)C)C1 (single isomer, unassigned) [Compound 13-Ent1] and CC1(C)C(=O)C(C#N)=C[C@@]2(C)CN(CCF)CC[C@H]12 (single isomer, unassigned) [Compound 47-Ent1] cannot be ordered by EC50: less than 10000 nM for the first, less than 1000 nM for the second.

CC12C=C(C#N)C(=O)C(C)(C)C1CCN(C(=O)c1ccccc1)C2 (single isomer, unassigned) [Compound 14-Ent1] and CC12C=C(C#N)C(=O)C(C)(C)C1CCN(C(=O)c1cccnc1)C2 (single isomer, unassigned) [Compound 23-Ent1] cannot be ordered by EC50: less than 1000 nM for the first, less than 1000 nM for the second.

CC12C=C(C#N)C(=O)C(C)(C)C1CCN(C(=O)c1ccccc1)C2 (single isomer, unassigned) [Compound 14-Ent2] and CC12C=C(C#N)C(=O)C(C)(C)C1CCN(C(=O)c1cccnc1)C2 (single isomer, unassigned) [Compound 23-Ent2] cannot be ordered by EC50: less than 10000 nM for the first, less than 10000 nM for the second.

CC12C=C(C#N)C(=O)C(C)(C)C1CCN(S(C)(=O)=O)C2 (single isomer, unassigned) [Compound 15-Ent1] and CC12C=C(C#N)C(=O)C(C)(C)C1CCN(S(=O)(=O)c1ccccc1)C2 (single isomer, unassigned) [Compound 16-Ent1] cannot be ordered by EC50: less than 1000 nM for the first, less than 1000 nM for the second.

CC12C=C(C#N)C(=O)C(C)(C)C1CCN(S(C)(=O)=O)C2 (single isomer, unassigned) [Compound 15-Ent2] and CCC(=O)N1CCC2C(C)(C=C(C#N)C(=O)C2(C)C)C1 (single isomer, unassigned) [Compound 26-Ent1] cannot be ordered by EC50: less than 10000 nM for the first, less than 1000 nM for the second.

CC12C=C(C#N)C(=O)C(C)(C)C1CCN(Cc1ccccc1)C2 (single isomer, unassigned) [Compound 17-Ent1] and CC(=O)N1CCC2C(C)(C)C(=O)C(C#N)=CC2(c2ccccc2)C1 (single isomer, unassigned) [Compound 61-Ent1] cannot be ordered by EC50: less than 1000 nM for the first, less than 10000 nM for the second.

CC12C=C(C#N)C(=O)C(C)(C)C1CCN(Cc1ccccc1)C2 (single isomer, unassigned) [Compound 17-Ent2] and CC1(C)C(=O)C(C#N)=CC2(c3ccccc3)CN(CC(F)F)CCC12 (single isomer, unassigned) [Compound 65-Ent1] cannot be ordered by EC50: less than 10000 nM for the first, less than 10000 nM for the second.

CC12C=C(C#N)C(=O)C(C)(C)C1CCN(C(=O)C1CCCCC1)C2 (single isomer, unassigned) [Compound 18-Ent1] and CC12C=C(C#N)C(=O)C(C)(C)C1CCN(C(=O)C1CC1)C2 (single isomer, unassigned) [Compound 20-Ent1] cannot be ordered by EC50: less than 1000 nM for the first, less than 10000 nM for the second.

CC12C=C(C#N)C(=O)C(C)(C)C1CCN(C(=O)C1CCCCC1)C2 (single isomer, unassigned) [Compound 18-Ent2] and CC12C=C(C#N)C(=O)C(C)(C)C1CCN(C(=O)C1CC1)C2 (single isomer, unassigned) [Compound 20-Ent2] cannot be ordered by EC50: less than 10000 nM for the first, less than 1000 nM for the second.

CCCC(=O)N1CCC2C(C)(C=C(C#N)C(=O)C2(C)C)C1 (single isomer, unassigned) [Compound 19-Ent1] and CCC(=O)N1CCC2C(C)(C=C(C#N)C(=O)C2(C)C)C1 (single isomer, unassigned) [Compound 26-Ent2] cannot be ordered by EC50: less than 1000 nM for the first, less than 10000 nM for the second.

CCCC(=O)N1CCC2C(C)(C=C(C#N)C(=O)C2(C)C)C1 (single isomer, unassigned) [Compound 19-Ent2] and CNC(=O)N1CCC2C(C)(C=C(C#N)C(=O)C2(C)C)C1 (single isomer, unassigned) [Compound 29-Ent1] cannot be ordered by EC50: less than 10000 nM for the first, less than 10000 nM for the second.

CC12C=C(C#N)C(=O)C(C)(C)C1CCN(C(=O)C1COC1)C2 (single isomer, unassigned) [Compound 21-Ent1] and CC1(C)C(=O)C(C#N)=C[C@@]2(C)CN(C3COC3)CC[C@H]12 (single isomer, unassigned) [Compound 39-Ent1] cannot be ordered by EC50: less than 1000 nM for the first, less than 10000 nM for the second.

CC12C=C(C#N)C(=O)C(C)(C)C1CCN(C(=O)C1COC1)C2 (single isomer, unassigned) [Compound 21-Ent2] and CC1(C)C(=O)C(C#N)=C[C@]2(C)CN(C3COC3)CC[C@@H]12 (single isomer, unassigned) [Compound 39-Ent2] cannot be ordered by EC50: less than 10000 nM for the first, less than 1000 nM for the second.

CC12C=C(C#N)C(=O)C(C)(C)C1CCN(C(=O)c1cncnc1)C2 (single isomer, unassigned) [Compound 24-Ent1] and Cn1cc(C(=O)N2CCC3C(C)(C=C(C#N)C(=O)C3(C)C)C2)cn1 (single isomer, unassigned) [Compound 25-Ent1] cannot be ordered by EC50: less than 10000 nM for the first, less than 1000 nM for the second.

Cn1cc(C(=O)N2CCC3C(C)(C=C(C#N)C(=O)C3(C)C)C2)cn1 (single isomer, unassigned) [Compound 25-Ent2] and CC(C)C(=O)N1CCC2C(C)(C=C(C#N)C(=O)C2(C)C)C1 (single isomer, unassigned) [Compound 27-Ent1] cannot be ordered by EC50: less than 10000 nM for the first, less than 1000 nM for the second.

CC(C)C(=O)N1CCC2C(C)(C=C(C#N)C(=O)C2(C)C)C1 (single isomer, unassigned) [Compound 27-Ent2] and CC(C)(C)C(=O)N1CCC2C(C)(C=C(C#N)C(=O)C2(C)C)C1 (single isomer, unassigned) [Compound 28-Ent1] cannot be ordered by EC50: less than 10000 nM for the first, less than 100 nM for the second.

CC(C)(C)C(=O)N1CCC2C(C)(C=C(C#N)C(=O)C2(C)C)C1 (single isomer, unassigned) [Compound 28-Ent2] and CC(=O)N1CCC[C@H]2C(C)(C)C(=O)C(C#N)=C[C@]2(C)C1 (single isomer, unassigned) [Compound 53-Ent2] cannot be ordered by EC50: less than 10000 nM for the first, less than 10000 nM for the second.

CC12C=C(C#N)C(=O)C(C)(C)C1CCN(c1ncccn1)C2 (single isomer, unassigned) [Compound 30-Ent1] and CCC12C=C(C#N)C(=O)C(C)(C)C1CCN(c1ncccn1)C2 (single isomer, unassigned) [Compound 57-Ent1] cannot be ordered by EC50: less than 1000 nM for the first, less than 1000 nM for the second.

CC12C=C(C#N)C(=O)C(C)(C)C1CCN(CC(F)(F)F)C2 (single isomer, unassigned) [Compound 31-Ent1] and CC12C=C(C#N)C(=O)C(C)(C)C1CCN(CC(F)F)C2 (single isomer, unassigned) [Compound 34-Ent1] cannot be ordered by EC50: less than 1000 nM for the first, less than 1000 nM for the second.

CC(=O)N1CCC2C(C)C(=O)C(C#N)=CC2(C)C1 (single isomer, unassigned) [Compound 33-Ent1] and CCC12C=C(C#N)C(=O)C(C)(C)C1CCN(C(C)=O)C2 (single isomer, unassigned) [Compound 56-Ent1] cannot be ordered by EC50: less than 1000 nM for the first, less than 1000 nM for the second.

CC(=O)N1CCC2C(C)C(=O)C(C#N)=CC2(C)C1 (single isomer, unassigned) [Compound 33-Ent2] and CCC12C=C(C#N)C(=O)C(C)(C)C1CCN(C(C)=O)C2 (single isomer, unassigned) [Compound 56-Ent2] cannot be ordered by EC50: less than 10000 nM for the first, less than 10000 nM for the second.

CC(C)(C)C(=O)N1CC=C2C(C)(C=C(C#N)C(=O)C2(C)C)C1 (single isomer, unassigned) [Compound 36-Ent1] and CN1CC=C2C(C)(C)C(=O)C(C#N)=C[C@]2(C)C1 (single isomer, unassigned) [Compound 48-Ent1] cannot be ordered by EC50: less than 1000 nM for the first, less than 10000 nM for the second.

CC(C)(C)C(=O)N1CC=C2C(C)(C=C(C#N)C(=O)C2(C)C)C1 (single isomer, unassigned) [Compound 36-Ent2] and CN1CC=C2C(C)(C)C(=O)C(C#N)=C[C@@]2(C)C1 (single isomer, unassigned) [Compound 48-Ent2] cannot be ordered by EC50: less than 10000 nM for the first, less than 10000 nM for the second.

CC12C=C(C#N)C(=O)C(C)(C)C1=CCN(c1ncccn1)C2 (single isomer, unassigned) [Compound 38-Ent1] and CC1(C)C(=O)C(C#N)=C[C@]2(C)COCC=C12 (single isomer, unassigned) [Compound 49-Ent1] cannot be ordered by EC50: less than 1000 nM for the first, less than 1000 nM for the second.

CC1C(=O)C(C#N)=CC2(c3ccccc3)C(=O)N(Cc3ccccc3)CCC12 (single isomer, unassigned) [Compound 46-Ent1] and CCN1CCC2C(C)C(=O)C(C#N)=CC2(c2ccccc2)C1=O (single isomer, unassigned) [Compound 69-Ent1] cannot be ordered by EC50: less than 10000 nM for the first, less than 10000 nM for the second.

CC1C(=O)C(C#N)=CC2(c3ccccc3)C(=O)N(Cc3ccccc3)CCC12 (single isomer, unassigned) [Compound 46-Ent2] and CCN1CCC2C(C)C(=O)C(C#N)=CC2(c2ccccc2)C1=O (single isomer, unassigned) [Compound 69-Ent2] cannot be ordered by EC50: less than 100 nM for the first, less than 100 nM for the second.

Going from CC1(C)C(=O)C(C#N)=C[C@]2(C)COCCC12 (single isomer, unassigned) [Compound 50-Ent1] to CC12C=C(C#N)C(=O)C(C)(C)C1CCNC(=O)C2 (single isomer, unassigned) [Compound 51-Ent1], the EC50 falls from greater than 10000 nM to less than 10000 nM.

CC12C=C(C#N)C(=O)C(C)(C)C1CCC(=O)NC2 (single isomer, unassigned) [Compound 52-Ent1] and CCC12C=C(C#N)C(=O)C(C)(C)C1CCN(CC(F)F)C2 (single isomer, unassigned) [Compound 58-Ent1] cannot be ordered by EC50: less than 10000 nM for the first, less than 1000 nM for the second.

CC1C(=O)C(C#N)=CC2(c3ccccc3)C(=O)NCCC12 (single isomer, unassigned) [Compound 60-Ent1] and CN1CC=C2C(C)(C)C(=O)C(C#N)=CC2(c2ccccc2)C1=O (single isomer, unassigned) [Compound 70-Ent2] cannot be ordered by EC50: less than 1000 nM for the first, less than 100 nM for the second.

CC1C(=O)C(C#N)=CC2(c3ccccc3)C(=O)NCCC12 (single isomer, unassigned) [Compound 60-Ent2] and CC(=O)N1CC=C2[C@](C)(Cc3ccccc3)C(=O)C(C#N)=C[C@@]2(C)C1 (single isomer, unassigned) [Compound 74-Ent1] cannot be ordered by EC50: less than 10000 nM for the first, less than 1000 nM for the second.

CC[C@]1(C)C(=O)C(C#N)=C[C@@]2(C)CN(C(C)=O)CC=C12 (single isomer, unassigned) [Compound 72-Ent1] and CC[C@@]1(C)C(=O)C(C#N)=C[C@@]2(C)CN(C(C)=O)CC=C12 (single isomer, unassigned) [Compound 73-Ent1] cannot be ordered by EC50: less than 100 nM for the first, less than 100 nM for the second.
